Test results taken from patent US9459246B2, “Induced intercellular communication” (Nodality, Inc., priority 2009, dated 2016).

Tested on: peripheral blood mononuclear cells (PBMC)
Test: SCNP assay of SAg-modulated PBMC signaling over time, with or without cytokine pathway inhibitors (Examples 10, 11, 13)
Assay type: cell-based, human

SMILES: C[C@@H]1CCN(C(=O)CC#N)C[C@@H]1N(C)c1ncnc2[nH]ccc12 [Tofacitinib]
- JAK selectivity in the SCNP assay: pan-JAK promiscuity
- IC50 (Homo sapiens, PBMC, read-out: IC50 for p-STAT5 inhibition): < 0.5 µM
